These are yes or no findings as the source states them, for the method shown. Binding seen in cells or lysates may run through a third protein.

The target in this assay is ZMYND10 (mouse (endogenous in testes and oviduct)). Nature of the assay: co-IP; endogenous ZMYND10 immunoprecipitated with two ZMYND10 antibodies from control and Zmynd10 mutant P30 mouse testes extracts, immunoblot; reciprocal endogenous immunoprecipitations for LRRC6 and DNAAF1, rIgG control; sodium molybdate in the IP buffer for HSP90. For orientation: In western blotting, separated proteins are transferred to a membrane and probed.

B1: LRRC6 (protein, UniProt O88978 1-473)
chain: MGRITEDLIRRNAEHNDCVIFSLEELSLHQQEIERLEHIDKWCRDLKILYLQNNLIGKIENVSKLKKLEYLNLALNNIERIENLEGCEWLTKLDLTVNFIGELSSVKTLTHNIHLKELFLMGNPCADFDGYRQFVVVTLQQLKWLDGKEIERSERIQALQNYTSVEQQIREQEKAYCLRRAKEKEEAQRKLEEENESEDKKKSSTGFDGHWYTDIHTACPSATENQDYPQVPETQEEQHNTKESDDIEDDLAFWNKPSLFTPESRLETLRHMEKQRKAQDKLSEKKKKAKPPRTLITEDGKVLNVNEAKLDFSLKDDEKHNQIILDLAVYRYMDTSLIEVDVQPTYVRVMVKGKPFQLALSTEVQPDRSSAKRSQTTGHLLICMPKVGEMITGGQRTPTSVKTTSTSSREQTNPRKKQIERLEVDPSKHSCPDVSTIVQEKRHRPKRMESQPRDEPSEEDPDFEDNPEVPPLI
For the molecule B1, the binding entry is reported as “no binding”.

B2: DNAAF1 (protein, UniProt Q9D2H9 1-634)
chain: MHPEVSEPPVDSVAEPSLEESAGDHGDAGPGIRKEEISETKETCAGPCTTSCPSQQQPSGDNGSEGFCTHSRDDREDRGPRMTKQFLQKLCKQHKLYVTPALNDTLYLHFKGFDRIENLEEYTGLRCLWLECNGIQRIENLQAQSELRCLFLQVNLLHKIENLEPLQKLDALNLSNNYIKTIENLSCLPVLNTLQMAHNRLETVADIEHLRECLRLCVLDLSHNALSDPEILSVLESMPCLRVLNLMGNPVTKHIPNYRRTVTVRLKHLTYLDDRPVFPKDRACAEAWARGGYAAEKEERRQWESREHKKITDSLEALAMIKRRAEERKKARDRGETPLPDSEGSIPTSPEAEEKQPMGEIQKKMELFVEESFEAKDELFPETPGGEKELHVVVVNGAVENPDLSGSLAHNQTPVVVTPEESTSPVAATDGARTEDIEAVAVEIKERLFIDDLPDLEDAEGTDVSVEDQIKETDIPRIQAISSLSDDSDPELDELSLSTSEATPTGATGALSHIFAISKGPSTAATVPFTDICKPIATTDLESQGQDCGAAASRPLIQELNDEPAEEAANQPLPPQTCASDPALAHPSEDGDSDSQLPAATLLGDGAEDEAESSVHPKEPSTRVGLEDIEFGLD
B2: the binding entry is “no binding”.

The record behind these values is PMC6044906.
